In paper doi:10.1101/2020.07.09.194902:
No constants are given. Whether binding was seen depends on the method and setting. Binding seen in cells or lysates may run through a third protein. These calls come from enrichment with a bait or labelling near it, and not all partners need be listed.

The chains behind the UniProt entries cited, without tags or fusion partners.
UniProt Q03195: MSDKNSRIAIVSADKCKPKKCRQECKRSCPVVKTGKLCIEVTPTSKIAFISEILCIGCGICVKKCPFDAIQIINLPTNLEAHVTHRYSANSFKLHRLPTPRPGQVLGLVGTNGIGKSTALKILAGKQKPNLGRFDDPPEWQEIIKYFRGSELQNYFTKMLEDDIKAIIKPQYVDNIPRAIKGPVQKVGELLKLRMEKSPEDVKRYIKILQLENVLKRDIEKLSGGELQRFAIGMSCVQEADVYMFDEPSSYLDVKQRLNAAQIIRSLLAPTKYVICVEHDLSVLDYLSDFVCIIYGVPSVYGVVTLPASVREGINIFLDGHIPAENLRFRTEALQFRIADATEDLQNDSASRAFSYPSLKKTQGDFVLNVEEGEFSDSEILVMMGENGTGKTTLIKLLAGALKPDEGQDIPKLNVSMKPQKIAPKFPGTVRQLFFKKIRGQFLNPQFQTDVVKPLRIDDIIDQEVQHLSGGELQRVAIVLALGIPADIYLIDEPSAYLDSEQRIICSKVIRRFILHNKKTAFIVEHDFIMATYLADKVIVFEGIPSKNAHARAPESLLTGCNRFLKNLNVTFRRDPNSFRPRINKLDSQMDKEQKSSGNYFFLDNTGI
UniProt Q05775: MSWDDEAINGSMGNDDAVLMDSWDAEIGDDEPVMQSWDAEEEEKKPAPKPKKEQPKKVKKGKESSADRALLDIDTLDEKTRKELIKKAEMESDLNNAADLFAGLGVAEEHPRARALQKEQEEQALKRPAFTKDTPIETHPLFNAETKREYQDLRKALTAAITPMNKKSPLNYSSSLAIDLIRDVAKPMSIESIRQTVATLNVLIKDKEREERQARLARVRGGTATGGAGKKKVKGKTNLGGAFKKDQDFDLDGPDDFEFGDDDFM

Target: TAP-tagged ABCE1 (Rli1p) (S. cerevisiae) (UniProt Q03195)
Assay: affinity purification with mass spectrometry

**Q.** Which binding does the source give for “eIF3j (Hcr1 in yeast) (from UniProt Q05775 1-265)” here?
**A.** The binding was “binds”.
